{"sequences": {"note": "Protein sequences, listed by entry. Tags and fused reporters are not part of them.", "UniProt Q8NER1, whole entry, looked up": "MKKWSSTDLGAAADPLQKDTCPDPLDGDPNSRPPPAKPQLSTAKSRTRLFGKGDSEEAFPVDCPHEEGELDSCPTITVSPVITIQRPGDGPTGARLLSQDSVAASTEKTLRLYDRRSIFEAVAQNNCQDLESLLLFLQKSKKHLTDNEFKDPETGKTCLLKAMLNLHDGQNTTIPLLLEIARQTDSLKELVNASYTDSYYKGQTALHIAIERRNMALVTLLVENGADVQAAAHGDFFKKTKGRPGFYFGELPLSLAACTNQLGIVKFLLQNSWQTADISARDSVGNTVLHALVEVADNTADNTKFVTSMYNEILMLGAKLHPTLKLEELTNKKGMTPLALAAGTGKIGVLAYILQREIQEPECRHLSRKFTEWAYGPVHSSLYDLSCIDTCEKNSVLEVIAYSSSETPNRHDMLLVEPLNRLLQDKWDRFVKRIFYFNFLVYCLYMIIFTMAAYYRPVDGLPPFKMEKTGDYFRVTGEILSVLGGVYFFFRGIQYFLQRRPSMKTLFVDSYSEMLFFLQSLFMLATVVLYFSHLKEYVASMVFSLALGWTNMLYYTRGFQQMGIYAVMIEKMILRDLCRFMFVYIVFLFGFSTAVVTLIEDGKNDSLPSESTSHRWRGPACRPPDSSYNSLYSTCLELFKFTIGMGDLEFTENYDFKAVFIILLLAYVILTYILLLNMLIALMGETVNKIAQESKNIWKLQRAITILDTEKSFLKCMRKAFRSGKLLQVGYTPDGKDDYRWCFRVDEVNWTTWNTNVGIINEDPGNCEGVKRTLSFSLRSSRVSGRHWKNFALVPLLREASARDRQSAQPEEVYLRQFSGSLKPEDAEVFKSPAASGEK"}, "source": "PubChem BioAssay AID540275", "about": "(National Center for Advancing Translational Sciences (NCATS), 2011)", "note": "In all, about 320,000 compounds went through this assay and about 620 (0.19%) were called active. Inconclusive results, whose numbers are uncertain, are shown with a selection of clear calls. Cut-off read from the data, not from the text of the source: active = activation above about 80%; inconclusive = between about 30% and that limit; inactive = weaker than that."}
{"molecular_target": "Transient receptor potential cation channel subfamily V member 1 (Homo sapiens) (UniProt Q8NER1)", "assay": "HTS Assay for Compounds that Act as Agonists of the Vanilloid Receptor 1; for activation: 0% is about no effect", "details": "TRPV1-expressing cells, Fluo-8 calcium influx, agonist mode; at 8.33 µM, hits give high values", "in_short": "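TRPV1-expressing cells were cultured overnight at 35.5C and loaded with Fluo-8 calcium dye for 40 to 90 min at room temperature. After a 10 s baseline, compound was added and calcium influx was read kinetically for 3 min (ex 480/em 520 nm).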"}
{"compound": "O=C(CNC(c1ccccc1)c1ccccc1)Nc1ccccc1Br", "activation": "inconclusive: 38.4%"}
{"compound": "O=C(NCCN1CCCCC1)Nc1ccccc1F", "activation": "inactive: -1.91%"}
{"compound": "CC(C)CCN(N=O)[C@@H](Cc1ccccc1)CN(N=O)[C@@H](Cc1ccccc1)CN(C)N=O", "activation": "inactive: 9.64%"}
{"compound": "COc1c(Br)cc(/C=N/n2c(-c3ccccc3)n[nH]c2=S)c(O)c1Br", "activation": "inactive: -8.66%"}
{"compound": "COCc1cc(CN(C)C(=O)C2CCC(=O)N(Cc3cccc(OC)c3)C2)[nH]n1", "note": "(stereo not given)", "activation": "inactive: 7.4%"}
{"compound": "Cc1ccc(CNC(=O)C2CCN(S(=O)(=O)c3c(C)noc3C)CC2)cc1", "activation": "inconclusive: 34.7%"}
{"compound": "COc1ccc(C(=O)N2CCN(Cc3ccccc3C(F)(F)F)CC2)cc1", "activation": "inconclusive: 40.6%"}
{"compound": "Cc1ccc(NC(=O)c2ccc3c(c2)OCCO3)nc1", "activation": "inconclusive: 70.5%"}
{"compound": "CNC(=O)COC(=O)c1cc(-c2ccc(OC)cc2)nc2ccccc12", "activation": "inconclusive: 35.3%"}
{"compound": "O=[N+]([O-])c1ccc(Sc2cccc[n+]2[O-])c2nonc12", "activation": "inconclusive: 30.2%"}
{"compound": "O=C(/C=C/c1cccs1)Nc1nc(-c2ccccc2)cs1", "activation": "inconclusive: 44%"}
{"compound": "COc1ccc(C(=O)NCc2ccccc2)cc1Br", "activation": "inconclusive: 41.5%"}
{"compound": "CC1CCCC(C)N1CCCNC(=O)c1ccc2nc(N3CCOCC3)sc2c1", "note": "(stereo not given)", "activation": "inactive: -0.57%"}
{"compound": "CC(C)CCNC(=O)Cn1c(=O)oc2cc(S(=O)(=O)N3CC(C)CC(C)C3)ccc21", "note": "(stereo not given)", "activation": "inconclusive: 34.9%"}
{"compound": "N#CC1=C(N)Oc2cc(O)ccc2C1c1cccnc1", "note": "(stereo not given)", "activation": "inactive: 1.84%"}
{"compound": "CCc1ccccc1OCC(=O)Nc1ccc(S(N)(=O)=O)cc1", "activation": "inconclusive: 34.4%"}
{"compound": "O=C(COc1ccccc1[N+](=O)[O-])Nc1ccc2c(c1)CCC2", "activation": "inconclusive: 34.3%"}
{"compound": "CC(C)OCC(O)CN1CCC(Cc2ccccc2)CC1", "note": "(stereo not given)", "activation": "inactive: 2.25%"}
{"compound": "CC(C)(C)c1ccc(OCC(=O)Nc2ccncc2)cc1", "activation": "inconclusive: 80%"}
{"compound": "c1ccc(N2CCN(c3cnccn3)CC2)nc1", "activation": "inactive: -0.68%"}
{"compound": "O=C(Nc1ccccc1Cl)C1CCCN(c2ncnc3c2nc2n3CCCCC2)C1", "note": "(stereo not given)", "activation": "inconclusive: 40.9%"}
{"compound": "COC(=O)c1ccc(C(=O)Nc2ccc(F)cc2)cc1", "activation": "inconclusive: 64.9%"}
{"compound": "S=c1[nH]c(-c2ccccc2)cn1-c1ccccc1", "activation": "inactive: 0.697%"}
{"compound": "O=C(Nc1ccc(N2CCOCC2)c(Cl)c1)c1ccc2c(c1)OCCO2", "activation": "inactive: 7.29%"}
{"compound": "CC(Nc1cc(N2CCCC2)ccc1[N+](=O)[O-])c1ccccc1", "note": "(stereo not given)", "activation": "inconclusive: 35.5%"}
{"compound": "COc1ccccc1C(O)(c1ccccc1)C(CN1CCOCC1)c1ccccc1", "note": "(stereo not given)", "activation": "inconclusive: 51.4%"}
{"compound": "CCSc1nsc(NC(=O)Nc2cccc(C(C)=O)c2)n1", "activation": "inconclusive: 46.3%"}
{"compound": "COc1ccc(CC2(CO)CCN(S(=O)(=O)c3sccc3C)CC2)cc1", "activation": "inactive: 25.4%"}
{"compound": "CC(=O)c1cccc(NC(=O)c2ccc(S(=O)(=O)N3CCCCC3)cc2)c1", "activation": "inconclusive: 50.3%"}
{"compound": "CCOc1ccccc1N1CCN(S(=O)(=O)c2cc(C)ccc2OC)CC1", "activation": "inconclusive: 40.9%"}
{"compound": "Cc1ccccc1N1CCN(C2CCCN(C(=O)c3csc(C(C)C)n3)C2)CC1", "note": "(stereo not given)", "activation": "inconclusive: 39.1%"}
{"compound": "COc1ccc(NC(=O)CC(C)NCCCN2CCCC2=O)cc1", "note": "(stereo not given)", "activation": "inactive: -1.39%"}
{"compound": "C/C(N)=C(/C#N)C(=O)CSc1nc2cc(Cl)ccc2c(=O)n1-c1ccc(C)cc1", "activation": "inconclusive: 47.8%"}
{"compound": "CCc1nnc(NC(=O)CSc2ncnc3c2cnn3-c2ccc(OC)cc2)s1", "activation": "inactive: -4.49%"}
{"compound": "O=C(Cc1ccccc1)N1CCC(c2nc(-c3ccc(F)cc3)no2)CC1", "activation": "inconclusive: 35%"}
{"compound": "O=C(Nc1nc(-c2cccs2)cs1)c1ccco1", "activation": "inconclusive: 32.3%"}
{"compound": "COc1ccc(C(=O)/C=C/c2ccccc2F)c(OC(=O)c2ccc([N+](=O)[O-])cc2)c1", "activation": "inconclusive: 31.7%"}
{"compound": "CC1(C)CC(=O)C=C(c2cccc(Br)c2)C1", "activation": "inconclusive: 37.4%"}
{"compound": "O=C1NCCCC2c3c(cc(Br)c(O)c3Br)OC12N1CCOCC1", "note": "(stereo not given)", "activation": "inactive: 2.7%"}
{"compound": "CN=c1scc(C)n1/N=C/c1ccc(O)cc1", "activation": "inactive: -1.32%"}
{"compound": "Cc1ccc(SCc2c(C(=O)N/N=C/c3ccncc3)nnn2-c2nonc2N)cc1", "activation": "inconclusive: 55.5%"}
{"compound": "CC(=O)NC(c1ccccc1)c1cc([N+](=O)[O-])c2cccnc2c1O", "note": "(stereo not given)", "activation": "inactive: -1.88%"}
{"compound": "CC1Cc2ccccc2N1C(=O)COC(=O)c1c2c(nc3ccccc13)CCCCC2", "note": "(stereo not given)", "activation": "inactive: 18.6%"}
{"compound": "Clc1c(CSc2nc3ccccc3o2)nc2sccn12", "activation": "inactive: -2.99%"}
{"compound": "Cc1cccc(C(=O)OC(C)C(=O)Nc2ccc(S(=O)(=O)Nc3ncccn3)cc2)c1C", "note": "(stereo not given)", "activation": "inactive: -0.199%"}
{"compound": "CNC(=S)N1CCN(C(c2ccccc2)c2ccccc2)CC1", "activation": "inconclusive: 71.9%"}
{"compound": "C[C@H](NC(=O)c1nc[nH]c1C(=O)N[C@@H](Cc1ccccc1)C(=O)OC(C)(C)C)C(=O)OC(C)(C)C", "activation": "inconclusive: 61.2%"}
{"compound": "O=C(O)Cc1sc(N/N=C\\c2ccccc2)nc1-c1ccccc1", "activation": "inconclusive: 46.3%"}
{"compound": "CCOC(=O)c1ccc(NC(=S)NCCc2ccc(OC)c(OC)c2)cc1", "activation": "inconclusive: 78.8%"}
{"compound": "COc1ccc2c(-c3ccccc3)cc(SCC(N)=O)nc2c1", "activation": "inconclusive: 33.2%"}
{"compound": "COc1cc2c(cc1OC)C1O[C@](CCCCN3C(=O)c4ccccc4C3=O)(C2)OC2=C1C(=O)c1ccccc1C2=O", "activation": "inconclusive"}
{"compound": "COc1ccc(CNCCC(c2ccc(F)cc2)c2ccc(OC)cc2)cc1", "note": "(stereo not given)", "activation": "inactive: 1.11%"}
{"compound": "Cc1ccc2nc(N/N=C/c3ccccc3F)nc(-c3ccccc3)c2c1", "activation": "inconclusive: 33.8%"}
{"compound": "CC(=O)N1N=C(c2ccccc2)CC1c1cn(Cc2ccccc2)c2ccccc12", "note": "(stereo not given)", "activation": "inconclusive: 43.3%"}
{"compound": "COCCN(Cc1nc2ccccc2c(=O)[nH]1)C(=O)c1cccc(S(=O)(=O)N2CCCC2)c1", "activation": "inactive: -0.629%"}
{"compound": "CC(=O)Nc1cccc(Nc2nc(-c3ccccc3)nc3ccccc23)c1", "activation": "inconclusive: 71.2%"}
{"compound": "c1ccc(COn2c(-c3ccccc3)nc3c2CCc2nonc2-3)cc1", "activation": "inconclusive: 71.6%"}
{"compound": "COc1ccc2[nH]c3nc(SCC(=O)Nc4ccc5c(c4)OCO5)nnc3c2c1", "activation": "inconclusive: 35.1%"}
{"compound": "CCOc1ccc(NC(=O)c2ccc3snnc3c2)cc1", "activation": "inconclusive: 71.5%"}
{"compound": "CCCc1cc2c(=O)c(-c3ccccn3)coc2cc1OC", "activation": "inconclusive: 33.4%"}
{"compound": "COCc1nc2ccccc2n1Cc1ccccc1C", "activation": "inactive: 22%"}
{"compound": "Cc1ccccc1OCC(=O)NCCC1=CCCCC1", "activation": "inconclusive: 49.7%"}
{"compound": "O=C(NCC1CCCO1)c1ccc2c(c1)C(=O)N(C1CCCCC1)C2=O", "note": "(stereo not given)", "activation": "inconclusive: 52.5%"}
{"compound": "Cc1cccc(NC(=O)CSc2nc3ccccc3nc2N2CCCCC2)c1", "activation": "inconclusive: 38.9%"}
{"compound": "Cc1ccc(CSCC(=O)NCc2cccs2)cc1", "activation": "inconclusive: 31.9%"}
{"compound": "O=C(Nc1ccc2c(c1)OCO2)c1ccc(CN2CCOCC2)cc1", "activation": "inconclusive: 38.4%"}
{"compound": "O=C(Cc1ccc([N+](=O)[O-])cc1)NCc1ccccc1Cl", "activation": "inconclusive: 38.1%"}
{"compound": "Cc1ccc(Cn2cnc3sc4c(c3c2=O)CCC4)c(C)c1", "activation": "inactive: -2.09%"}
{"compound": "Cc1nn(-c2nc3ccccc3[nH]2)c(N)c1-c1ccc(Cl)cc1", "activation": "inactive: 4.43%"}
{"compound": "O=C(NC12CC3CC(CC(C3)C1)C2)c1cncc(Br)c1", "activation": "inconclusive: 49.2%"}
{"compound": "CC(=O)Nc1ccc(NC(=O)COc2ccc3c(c2)CCC3)cc1", "activation": "inactive: 26%"}
{"compound": "COc1ccc(CN2CCCC(CO)(Cc3ccc(F)cc3)C2)c(OC)c1OC", "note": "(stereo not given)", "activation": "inactive: 4.92%"}
{"compound": "O=C(NC(Cc1ccccc1)C(=O)N1CCN(S(=O)(=O)c2ccccc2F)CC1)c1ccccc1", "note": "(stereo not given)", "activation": "inconclusive: 47.7%"}
{"compound": "CC(=NC1CC1)c1c(-c2ccccc2)[nH]n(-c2nc3ccccc3s2)c1=O", "activation": "inconclusive: 67.9%"}
{"compound": "COc1cccc(NC(=O)C2CCN(S(=O)(=O)c3ccc4c(c3)CC(C)N4C(C)=O)CC2)c1", "note": "(stereo not given)", "activation": "inactive: -1.63%"}
{"compound": "CCOC(=O)c1ccc(NC(=O)c2c(NC(=O)CCC(=O)O)sc3c2CCCCC3)cc1", "activation": "inactive: 0.242%"}
{"compound": "CC(=O)c1c(C)[nH]c(C(=O)CN2CCN(S(=O)(=O)c3ccc(C(C)C)cc3)CC2)c1C", "activation": "inactive: 1.53%"}
{"compound": "O=P(c1ccccc1)(c1ccccc1)c1nc(-c2ccc(Cl)cc2)oc1N1CCOCC1", "activation": "inconclusive: 40%"}
{"compound": "O=C(N/N=C/c1ccc2c(c1)OCO2)c1cc2ccccc2o1", "activation": "inconclusive: 61%"}
{"compound": "CC(=O)Nc1cccc(NC(=O)c2cc3ccccc3o2)c1", "activation": "inconclusive: 51.1%"}
{"compound": "Cc1ccc(-c2csc(NC(=O)N3CCOCC3)n2)cc1", "activation": "inconclusive: 73.2%"}
{"compound": "CS(=O)(=O)NCc1nnc(SCc2ccc(C(F)(F)F)cc2)o1", "activation": "inconclusive: 61.4%"}
{"compound": "CN(C)CCN(C(=O)/C=C/c1cccs1)c1nc2ccc(Br)cc2s1", "activation": "inactive: -2.74%"}
{"compound": "Cc1ccc(C)c(NC(=O)C(OC(=O)c2cnc(C)cn2)c2ccccc2)c1", "note": "(stereo not given)", "activation": "inactive: 1.66%"}
{"compound": "COc1ccc(CCNc2oc(-c3ccco3)nc2C#N)cc1", "activation": "inactive: 11.7%"}
{"compound": "CCCCCCCn1c2c(c(=N)c3c1CCC3)CCCC2", "activation": "inactive: 4.89%"}
{"compound": "O=C(NCC(=O)N1CCN(S(=O)(=O)c2ccccc2)CC1)c1ccc2ccccc2c1", "activation": "inactive: -1.13%"}
{"compound": "O=C(NCCCN1CCOCC1)c1ccc(Sc2cccc(Cl)c2)c([N+](=O)[O-])c1", "activation": "inactive: 20.3%"}
{"compound": "COc1ccc(CC(=O)N2CCN(c3ccccc3OC)CC2)cc1OC", "activation": "inconclusive: 36.6%"}
{"compound": "COc1ccccc1NC(=S)NCCc1ccc(OC)c(OC)c1", "activation": "inactive: 6.39%"}
